Test results reported in doi:10.1101/2024.04.12.589178.
No constants are given. Whether binding was seen depends on the method and setting. In cells and extracts the contact can be indirect. Some entries that bind do so weakly or less than the wild type.

Chains of the proteins cited; added tags and fusions are not shown. Residues count along the entry.
UniProt P30405, residues 30-207: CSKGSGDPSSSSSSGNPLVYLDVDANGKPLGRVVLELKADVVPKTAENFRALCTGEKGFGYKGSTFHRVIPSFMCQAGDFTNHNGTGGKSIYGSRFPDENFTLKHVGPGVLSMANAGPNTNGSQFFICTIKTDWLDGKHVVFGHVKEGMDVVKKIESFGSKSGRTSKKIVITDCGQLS

Legend:
Assay in all cases: co-IP
[1] = target: CyclophilinD (human (endogenous in HEK293T)) (UniProt P30405)
[2] = target: T1, MIC19 (human (endogenous in HEK293T)) (UniProt Q9NX63)
T1 sequence: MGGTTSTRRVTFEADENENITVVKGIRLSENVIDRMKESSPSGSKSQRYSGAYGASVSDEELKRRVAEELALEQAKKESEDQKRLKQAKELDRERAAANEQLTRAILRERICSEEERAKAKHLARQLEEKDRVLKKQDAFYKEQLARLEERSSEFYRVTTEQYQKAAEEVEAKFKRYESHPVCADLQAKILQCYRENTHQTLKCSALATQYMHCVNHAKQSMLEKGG

[3] = target: T2, MIC60 (human (endogenous in HEK293T)) (UniProt Q16891)
T2 sequence: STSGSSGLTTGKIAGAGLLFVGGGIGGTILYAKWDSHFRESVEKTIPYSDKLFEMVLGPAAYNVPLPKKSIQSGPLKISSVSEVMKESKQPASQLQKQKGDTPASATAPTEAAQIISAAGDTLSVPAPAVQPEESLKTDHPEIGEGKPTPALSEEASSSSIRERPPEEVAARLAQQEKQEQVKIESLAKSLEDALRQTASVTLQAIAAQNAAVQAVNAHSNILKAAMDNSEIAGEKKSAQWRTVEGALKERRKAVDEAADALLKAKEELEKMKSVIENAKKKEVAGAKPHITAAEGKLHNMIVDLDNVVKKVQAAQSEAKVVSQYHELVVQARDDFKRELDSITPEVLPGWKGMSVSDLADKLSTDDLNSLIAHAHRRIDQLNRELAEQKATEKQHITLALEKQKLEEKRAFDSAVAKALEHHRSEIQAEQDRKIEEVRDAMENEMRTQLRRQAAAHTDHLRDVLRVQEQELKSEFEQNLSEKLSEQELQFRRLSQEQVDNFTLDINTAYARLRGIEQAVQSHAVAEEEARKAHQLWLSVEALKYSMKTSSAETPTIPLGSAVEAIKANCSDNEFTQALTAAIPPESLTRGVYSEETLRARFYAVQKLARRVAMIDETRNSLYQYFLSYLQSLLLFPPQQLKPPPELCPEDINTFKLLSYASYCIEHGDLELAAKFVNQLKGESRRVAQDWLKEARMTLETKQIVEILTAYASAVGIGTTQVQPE

binding [1]: binds
binding [2]: binds
binding [3]: binds
B1: MPV17-BirA* (protein, UniProt P39210 1-176)
chain: MALWRAYQRALAAHPWKVQVLTAGSLMGLGDIISQQLVERRGLQEHQRGRTLTMVSLGCGFVGPVVGGWYKVLDRFIPGTTKVDALKKMLLDQGGFAPCFLGCFLPLVGALNGLSAQDNWAKLQRDYPDALITNYYLWPAVQLANFYLVPLHYRLAVVQCVAVIWNSYLSWKAHRL
